The record followed here is paper PMC12005527.

Results are given in words; binding and its absence hold for the method and conditions named. Binding seen in cells or lysates may run through a third protein. Some entries that bind do so weakly or less than the wild type. For some assays here: Sequences can lack the tags named with a protein.

Test [1] deals with T1, endogenous IRF3 (mouse peritoneal macrophages) (mouse (endogenous in peritoneal macrophages)) (UniProt P70671).
T1 sequence: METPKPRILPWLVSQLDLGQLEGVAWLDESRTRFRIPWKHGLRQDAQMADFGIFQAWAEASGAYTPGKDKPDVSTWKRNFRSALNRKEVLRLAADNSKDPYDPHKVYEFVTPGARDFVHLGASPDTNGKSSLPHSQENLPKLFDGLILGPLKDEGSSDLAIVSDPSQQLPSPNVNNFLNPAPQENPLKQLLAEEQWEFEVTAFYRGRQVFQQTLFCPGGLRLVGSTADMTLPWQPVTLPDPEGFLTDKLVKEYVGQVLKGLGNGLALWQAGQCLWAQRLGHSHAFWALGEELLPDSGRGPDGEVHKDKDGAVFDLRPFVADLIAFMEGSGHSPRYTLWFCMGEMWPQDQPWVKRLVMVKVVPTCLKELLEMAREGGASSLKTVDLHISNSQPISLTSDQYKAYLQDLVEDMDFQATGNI
Put plainly: co-IP; endogenous proteins in mouse peritoneal macrophages, infected with RSV for different times; precipitating antibody not stated.

Test [2] addresses T2, Myc-WT-RNF149 (E3 ubiquitin ligase RING finger protein 149) (UniProt Q8NC42).
T2 sequence: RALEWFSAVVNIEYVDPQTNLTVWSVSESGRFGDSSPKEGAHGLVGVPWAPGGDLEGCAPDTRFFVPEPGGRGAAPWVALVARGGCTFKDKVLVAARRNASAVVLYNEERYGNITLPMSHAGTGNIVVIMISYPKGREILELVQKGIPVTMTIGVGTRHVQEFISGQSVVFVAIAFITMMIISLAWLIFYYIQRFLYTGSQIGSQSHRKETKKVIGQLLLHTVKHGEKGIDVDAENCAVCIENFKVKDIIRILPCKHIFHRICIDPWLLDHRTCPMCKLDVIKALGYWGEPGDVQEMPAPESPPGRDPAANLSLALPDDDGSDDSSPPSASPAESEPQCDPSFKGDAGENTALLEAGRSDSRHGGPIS
The experiment in a line: co-IP; HEK293T cells co-transfected with Myc-RNF149 and Flag-tagged plasmids; immunoprecipitation with an anti-Myc antibody on Protein G-Agarose; NP-40 and high-salt washes.

B1: endogenous RNF149 (mouse peritoneal macrophages) (enzyme, UniProt Q3U2C5 32-394)
chain: GALEWYSAMVSIEYVDPQSNLTVWSVSESGRFGESSLREERQGLVGVPRAPAPAEGCAPDTRFVAPGALGNAPWVALVARGGCTFKDKVLAAARRNASAVVVYNLESNGNATEPMSHAGTGNIVVIMISYPKGREIFDLVQKGIPVKMRIEIGTRHMQEFISGQSVVFVAIAFITMMIISLAWLIFYYIQRFLYTGSQFGSQNHRKETKKVIGQLPLHTVKHGEKGIDVDAENCAVCIENFKVKDVIRILPCKHIFHRICIDPWLLDHRTCPMCKLDVIKALGYWGDPEDTQELPTPEAAPGRVSVGNLSVTSQDEERSESNLPSSSSSESGPHRPCLKEDAGEDTALLGAGRSEPQHGGSIC
B1: in test [1], the binding result was “binds”.

B2: Flag-WT-IRF3 (protein, UniProt Q14653 1-427)
chain: MGTPKPRILPWLVSQLDLGQLEGVAWVNKSRTRFRIPWKHGLRQDAQQEDFGIFQAWAEATGAYVPGRDKPDLPTWKRNFRSALNRKEGLRLAEDRSKDPHDPHKIYEFVNSGVGDFSQPDTSPDTNGGGSTSDTQEDILDELLGNMVLAPLPDPGPPSLAVAPEPCPQPLRSPSLDNPTPFPNLGPSENPLKRLLVPGEEWEFEVTAFYRGRQVFQQTISCPEGLRLVGSEVGDRTLPGWPVTLPDPGMSLTDRGVMSYVRHVLSCLGGGLALWRAGQWLWAQRLGHCHTYWAVSEELLPNSGHGPDGEVPKDKEGGVFDLGPFIVDLITFTEGSGRSPRYALWFCVGESWPQDQPWTKRLVMVKVVPTCLRALVEMARVGGASSLENTVDLHISNSHPLSLTSDQYKAYLQDLVEGMDFQGPGES
In the case of B2, in test [2], the binding entry is given as “binds”.
